Measured values: PubChem BioAssay AID504444 (National Center for Advancing Translational Sciences (NCATS), 2011)
Hit rate of the full screen: of about 360,000 compounds, about 7,500 (2.1%) were called active. Inconclusive means that the source gave no clear call. Such entries were picked first, then a sample of the others. Calls come from the whole dose curve; as a rule, active = well fitted inhibition curve with a large enough effect; inconclusive = small, poorly fitted or top-dose-only effect, or effect the other way; inactive = flat fitted curve, though single readings scatter. Potencies of inconclusive entries are doubtful fits and often do not repeat.

experiment: Nrf2 qHTS screen for inhibitors; details: A549 ARE-Fluc reporter, luciferase luminescence, 18-24 h; activity change, negative = inhibition: at 46 µM (top of the series); note: nearly all actives have a fitted effect of over 60% in size
Outline: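 Reporter: ARE-Fluc in A549. Exposure: 18-24 h, 37 °C, 5% CO2, 5% FBS OPTI-MEM. Readouts: fluorescent cytotoxicity (CellTiter-Fluor), then luminescent Nrf2 signal after BugLite.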
% is set by controls: 0 for no effect and ±100 for the full control effect; potency is the fitted concentration of half-maximal effect.

Structure (SMILES) | activity change, negative = inhibition | Potency
O=C(NCCC1=CCCCC1)c1ccc2c(c1)N(Cc1ccc(Cl)cc1)C(=O)c1ccccc1S2(=O)=O | inactive: 14.2% | –
Cc1ccc(SCC(Cc2ccccc2)N2CCN(CCc3ccccc3)CCC2=O)cc1 (stereo not given) | – | inconclusive: 32.6 µM [falling, single point]
O=C(CC(NS(=O)(=O)c1ccc(Cl)cc1)c1ccco1)NCc1cccnc1 (stereo not given) | – | inconclusive: 23.1 µM [activator, partial curve, poor fit]
COc1cc(C(=O)Nc2ccc(S(=O)(=O)Nc3cnc4ccccc4n3)cc2)cc(OC)c1OC | – | inconclusive: 13 µM [falling, partial curve]
CCCNC(=O)c1oc2ccc3c(c2c1C)C=CC(C)(C)O3 | – | inconclusive: 1.64 µM [activator, full curve]
CCN(CC(=O)Nc1cccc(S(=O)(=O)N2CCCCC2)c1)Cc1ccccc1 | – | inconclusive: 29.1 µM [falling, single point]
COCCNC(=O)c1ccc2c(c1)N(Cc1c(F)cccc1Cl)C(=O)c1ccccc1S2 | – | inconclusive: 16.4 µM [falling, single point]
Cn1nnnc1SCC(=O)Nc1nc2c(s1)CCCC2 | – | inconclusive: 5.8 µM [activator, full curve]
CC(=O)Nc1sc(N/N=C\c2ccccc2Cl)nc1-c1cccs1 | – | inconclusive: 11.6 µM [activator, partial curve]
O=c1c2ccccc2nc(N2CCN(c3cccc(Cl)c3)CC2)n1-c1ccccc1 | – | inconclusive: 20.6 µM [falling, single point]
CN(C)c1ccc(CSc2ccccc2)cc1 | – | inconclusive: 7.31 µM [activator, partial curve, poor fit]
COC(=O)c1cn(NC(=O)CC2CCCCC2)c(=O)c2ccccc12 | – | inconclusive: 6.51 µM [falling, full curve, poor fit]
CN(C)CCNc1ccc2ncn3c4ccc(O)cc4c(=O)c1c23 | – | inconclusive: 0.366 µM [falling, full curve, poor fit]
CCC(C(=O)N1CCN(c2ccc(OC)cc2)CC1)n1nc(C)n2c(cc3occc32)c1=O (stereo not given) | inactive: -29.4% | –
COc1ccc(-c2cc(C(=O)NCCCN3CCOCC3)c3cc(C(C)C)ccc3n2)cc1 | inactive: -1.65% | –
Nc1ccc(S(=O)(=O)NC2(C(F)(F)F)NC(=O)N(c3cccc(Cl)c3)C2=O)cc1 (stereo not given) | – | inconclusive: 1.3 µM [activator, full curve]
Clc1ccc(-c2noc(-c3cccnc3N3CCN(c4ccccc4)CC3)n2)cc1 | inactive: 27% | –
CCc1ccccc1Nc1cc(C(=O)NCCCN(C)C2CCCCC2)c2ccccc2n1 | inactive: 20.2% | –
COC(=O)C1NN=C(C(=O)c2ccc(Cl)cc2)C1c1ccc(OC)cc1 (stereo not given) | inactive: -13.3% | –
CCn1c(C)nc2cc(C(=O)N/N=C/c3ccccc3C)ccc21 | – | inconclusive: 1.64 µM [activator, full curve]
COc1ccc(-n2nc(C(=O)NCC(=O)N3CCCC3)c3ccccc3c2=O)cc1 | – | inconclusive: 29.1 µM [activator, single point]
Cc1ccc(OCC(=O)Nc2ccc(S(=O)(=O)N3CCOCC3)cc2)c(C)c1 | – | inconclusive: 18.4 µM [activator, single point]

Structure (SMILES) | activity change, negative = inhibition | Potency
COc1ccccc1/C=C/C(=O)NCCC1=CCCCC1 | – | inconclusive: 1.3 µM [activator, full curve]
COc1ccc(NS(=O)(=O)c2ccc3c(c2)NC(=O)CO3)cc1 | – | inconclusive: 3.66 µM [falling, partial curve, poor fit]
Cc1ccn2c(Nc3ccccc3C)c(-c3cccnc3)nc2c1 | – | inconclusive: 23.1 µM [activator, partial curve]
O=C1c2cccc3cccc(c23)C(=O)N1CCc1ccccc1 | – | inconclusive: 5.8 µM [activator, full curve]
Oc1cc(NCc2cccnc2)ccc1-c1nc2ccccc2o1 | – | inconclusive: 23.1 µM [activator, single point]
O=C(c1cccc2ccccc12)N1CCN(c2ccc([N+](=O)[O-])c(N3CCOCC3)c2)CC1 | – | inconclusive: 29.1 µM [falling, single point]
COc1ccc(-c2nn(Cc3ccccc3)cc2C(=O)N2CCN(c3ncccn3)CC2)cc1 | – | inconclusive: 0.731 µM [falling, full curve, poor fit]
CC(C)/C(=N\NC(=O)Nc1ccccc1)c1ccccc1 | – | inconclusive: 29.1 µM [falling, single point]
Cc1ccc2[nH]c3c(c2c1)CC/C(=C/c1ccccc1)C3=O | inactive: 25.2% | –
Cc1ccc(NC(=O)c2ccc3c(c2)OCCO3)cc1S(=O)(=O)Nc1cccc(Cl)c1 | – | inconclusive: 29.1 µM [falling, single point]
CN(C)NC(=O)c1csnc1-c1c(Cl)cccc1Cl | – | inconclusive: 29.1 µM [falling, single point]
COc1ccc(OCCN(C)CC(=O)Nc2ccccc2SC)cc1 | – | inconclusive: 20.6 µM [falling, single point]
Cc1ccc(S(=O)(=O)N2CCN(Cc3nc4sc(C)c(C)c4c(=O)[nH]3)CC2)cc1 | – | inconclusive: 6.51 µM [activator, partial curve, poor fit]
O=S(c1ccc2ccccc2c1)c1cnns1 (stereo not given) | – | inconclusive: 23.1 µM [falling, single point]
COc1cc(OC)cc(-c2c(-c3ccc(F)cc3)c3cc(-c4ccc5[nH]ccc5c4)ccc3n2C)c1 | – | inconclusive: 7.31 µM [falling, partial curve, poor fit]
CCOC(=O)c1cnc(SCC(=O)Nc2cccc(OC)c2)nc1N | – | active: 25.9 µM
Cc1ccc(N=C2C(=S)N(c3ccc(C)cc3)C(=N)N2/N=C/c2ccc(Cl)cc2)cc1 | – | inconclusive: 14.6 µM [activator, partial curve]
COc1ccc(NC(=O)c2cc(CC(C)C)on2)cc1OC | – | inconclusive: 16.4 µM [activator, single point]
CN(C)c1nc(=NCc2ccco2)ss1 | inactive: -0.839% | –
CCc1cccc(NC(=O)CS(=O)Cc2nc(-c3ccc(C)cc3)oc2C)c1 (stereo not given) | – | inconclusive: 1.03 µM [falling, partial curve, poor fit]
Cc1cccc(NC(=O)c2cc(-c3ccc(C)c(C)c3O)n[nH]2)c1 | – | inconclusive: 0.366 µM [activator, full curve]
Nc1ccc2oc(-c3cccc(Br)c3)nc2c1 | – | inconclusive: 4.11 µM [activator, full curve]

Rewritten field by field: 2 of the compounds above.
COc1ccccc1/C=C/C(=O)NCCC1=CCCCC1
  Potency: inconclusive: 1.3 µM [activator, full curve]
Cc1ccc(S(=O)(=O)N2CCN(Cc3nc4sc(C)c(C)c4c(=O)[nH]3)CC2)cc1
  Potency: inconclusive: 6.51 µM [activator, partial curve, poor fit]

(listing goes on)

Structure (SMILES) | activity change, negative = inhibition | Potency
O=S(=O)(Nc1ccc(-c2nc3cccnc3s2)cc1)c1ccc(Cl)s1 | – | inconclusive: 5.8 µM [activator, partial curve, poor fit]
CCCCNC(=O)CC1N=C2c3ccccc3N=C(SCC(=O)NCc3ccccc3Cl)N2C1=O (stereo not given) | inactive: -6.58% | –
COc1cc(Nc2nc3ccccc3nc2NS(=O)(=O)c2ccc([N+](=O)[O-])cc2)cc(OC)c1OC | – | inconclusive: 29.1 µM [falling, single point]
Cc1nn(Cc2ccccc2)c(Cl)c1/C=C1\NC(=S)NC1=O | – | inconclusive: 9.2 µM [falling, partial curve]
O=C(CSc1ccc(F)cc1)Nc1ccc(Br)cc1 | – | inconclusive: 18.4 µM [activator, single point]
CC1(C)Nc2ccccc2C(=O)N1c1ccc(Br)cc1 | – | inconclusive: 13 µM [activator, partial curve]
O=C(NC1CCCCC1)C(=S)NCCc1ccccc1 | – | inconclusive: 16.4 µM [activator, partial curve]
CC(C)(C)OC(=O)[C@H](Cc1ccccc1)NC(=O)c1nc[nH]c1C(=O)NCC(=O)OCc1ccccc1 | – | inconclusive: 23.1 µM [falling, single point]
COc1ccc(OCc2cc(C(=O)N3CCC(OC)CC3)no2)c2ccccc12 | – | inconclusive: 7.31 µM [activator, partial curve]
CC(C)(C)CC(=O)Nc1cc(S(=O)(=O)N2CCCCCC2)ccc1Cl | inactive: 3.34% | –
CCc1ccc(C(=O)C(C)OC(=O)c2cccc(S(=O)(=O)N3CCOCC3)c2)cc1 (stereo not given) | – | inconclusive: 16.4 µM [falling, partial curve, poor fit]
CCc1ccc(NC2Nc3cc(C)nn3S2)cc1 (stereo not given) | – | inconclusive: 1.46 µM [activator, full curve]
O=C(CSc1ccccn1)Nc1ccc2c(c1)C(=O)c1ccccc1C2=O | – | inconclusive: 29.1 µM [falling, single point]
Cc1cc(=O)oc2cc(OCC(=O)Nc3c(C(C)C)cccc3C(C)C)ccc12 | inactive: 12.3% | –
O=C(NC1CCCCC1)c1ccc2c(c1)OCO2 | – | inconclusive: 11.6 µM [activator, partial curve]
O=C(Nc1ccc(Cl)cn1)Nc1ccc(Cl)cn1 | – | inconclusive: 1.84 µM [activator, partial curve, poor fit]
Nc1[nH]n(-c2ccccc2)c(=O)c1N=Nc1ccc2c(c1)OCO2 | – | inconclusive: 13 µM [activator, single point]
O=C1C=C(NCCNc2c(F)c(F)c(CO)c(F)c2F)CCC1 | – | inconclusive: 0.0052 µM [activator, full curve, poor fit]
O=C(CCn1cnc2ccccc2c1=O)Nc1ccc2c(c1)OCCO2 | – | inconclusive: 29.1 µM [activator, single point]
Fc1ccc(Nc2c(-c3ccco3)nc3ccccn23)cc1 | – | inconclusive: 23.1 µM [activator, partial curve]
N#CCCn1nc(-c2ccc(Br)cc2)cc1Nc1ccccc1NC(=O)C(F)(F)F | – | inconclusive: 23.1 µM [falling, single point]
